Measured values published in paper PMC4559358.
No constants are given. Whether binding was seen depends on the method and setting. In cells and extracts the contact can be indirect. Binding can be weak; no strength is given.

The chains behind the UniProt entries cited, without tags or fusion partners.
UniProt Q9Z0W5: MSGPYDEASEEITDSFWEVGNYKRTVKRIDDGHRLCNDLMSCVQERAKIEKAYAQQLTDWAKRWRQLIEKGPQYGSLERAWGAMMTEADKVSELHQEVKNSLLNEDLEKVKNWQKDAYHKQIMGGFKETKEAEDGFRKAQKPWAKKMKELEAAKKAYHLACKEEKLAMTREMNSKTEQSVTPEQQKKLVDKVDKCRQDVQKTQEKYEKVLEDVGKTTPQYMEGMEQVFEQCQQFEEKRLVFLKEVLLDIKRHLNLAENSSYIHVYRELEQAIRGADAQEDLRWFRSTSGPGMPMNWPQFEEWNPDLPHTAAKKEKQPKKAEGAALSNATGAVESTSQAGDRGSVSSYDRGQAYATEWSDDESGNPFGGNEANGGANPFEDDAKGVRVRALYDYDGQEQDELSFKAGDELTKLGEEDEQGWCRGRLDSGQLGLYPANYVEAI

Molecular target: GFP-Cobl^1-408∆CaM (mouse) (UniProt Q5NBX1)
Assay: co-IP; HEK293 lysates, anti-GFP immunoprecipitation, protein A-agarose, lysis buffer without DTT, 75 mM NaCl (confirmed at 100 mM NaCl); Ca^2+-free, 2 μM Ca^2+, or 2 μM Ca^2+ then 1 mM EGTA; quantitative immunoblot normalized to immunoprecipitated Cobl

binding: binds
Substance: Flag-syndapin I (from UniProt Q9Z0W5 1-441)
